# No constants are given. Whether binding was seen depends on the method and setting. In cells and extracts the contact can be indirect. Some binding calls cover weakened binding; strength is not graded here.
# Protein sequences, listed by entry. Tags and fused reporters are not part of them. Lines headed by an entry give the natural chain unless they say otherwise; changes in a name come on top.
# UniProt Q9NRC8: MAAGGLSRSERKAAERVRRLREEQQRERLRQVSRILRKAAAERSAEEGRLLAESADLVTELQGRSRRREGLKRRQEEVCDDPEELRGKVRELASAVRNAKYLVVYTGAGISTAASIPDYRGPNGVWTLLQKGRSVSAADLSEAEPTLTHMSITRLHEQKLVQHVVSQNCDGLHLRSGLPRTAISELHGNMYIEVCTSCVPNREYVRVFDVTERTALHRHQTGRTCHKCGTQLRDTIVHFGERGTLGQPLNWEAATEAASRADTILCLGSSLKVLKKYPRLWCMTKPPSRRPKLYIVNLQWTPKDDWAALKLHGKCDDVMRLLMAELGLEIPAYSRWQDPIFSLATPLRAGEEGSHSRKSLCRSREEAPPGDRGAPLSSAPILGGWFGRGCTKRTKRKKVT
# UniProt Q13309: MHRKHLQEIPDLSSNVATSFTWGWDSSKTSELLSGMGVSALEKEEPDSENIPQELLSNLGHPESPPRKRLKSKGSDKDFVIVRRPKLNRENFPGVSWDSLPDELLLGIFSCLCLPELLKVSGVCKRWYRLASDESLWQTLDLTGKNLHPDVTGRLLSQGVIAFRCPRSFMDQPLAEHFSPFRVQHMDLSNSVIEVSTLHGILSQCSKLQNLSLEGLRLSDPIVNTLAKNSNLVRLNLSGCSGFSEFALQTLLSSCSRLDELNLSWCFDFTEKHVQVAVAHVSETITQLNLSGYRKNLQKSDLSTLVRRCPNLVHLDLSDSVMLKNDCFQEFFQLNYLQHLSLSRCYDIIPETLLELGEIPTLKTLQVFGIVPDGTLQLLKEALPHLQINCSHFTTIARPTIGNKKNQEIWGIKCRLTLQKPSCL
# UniProt O95071: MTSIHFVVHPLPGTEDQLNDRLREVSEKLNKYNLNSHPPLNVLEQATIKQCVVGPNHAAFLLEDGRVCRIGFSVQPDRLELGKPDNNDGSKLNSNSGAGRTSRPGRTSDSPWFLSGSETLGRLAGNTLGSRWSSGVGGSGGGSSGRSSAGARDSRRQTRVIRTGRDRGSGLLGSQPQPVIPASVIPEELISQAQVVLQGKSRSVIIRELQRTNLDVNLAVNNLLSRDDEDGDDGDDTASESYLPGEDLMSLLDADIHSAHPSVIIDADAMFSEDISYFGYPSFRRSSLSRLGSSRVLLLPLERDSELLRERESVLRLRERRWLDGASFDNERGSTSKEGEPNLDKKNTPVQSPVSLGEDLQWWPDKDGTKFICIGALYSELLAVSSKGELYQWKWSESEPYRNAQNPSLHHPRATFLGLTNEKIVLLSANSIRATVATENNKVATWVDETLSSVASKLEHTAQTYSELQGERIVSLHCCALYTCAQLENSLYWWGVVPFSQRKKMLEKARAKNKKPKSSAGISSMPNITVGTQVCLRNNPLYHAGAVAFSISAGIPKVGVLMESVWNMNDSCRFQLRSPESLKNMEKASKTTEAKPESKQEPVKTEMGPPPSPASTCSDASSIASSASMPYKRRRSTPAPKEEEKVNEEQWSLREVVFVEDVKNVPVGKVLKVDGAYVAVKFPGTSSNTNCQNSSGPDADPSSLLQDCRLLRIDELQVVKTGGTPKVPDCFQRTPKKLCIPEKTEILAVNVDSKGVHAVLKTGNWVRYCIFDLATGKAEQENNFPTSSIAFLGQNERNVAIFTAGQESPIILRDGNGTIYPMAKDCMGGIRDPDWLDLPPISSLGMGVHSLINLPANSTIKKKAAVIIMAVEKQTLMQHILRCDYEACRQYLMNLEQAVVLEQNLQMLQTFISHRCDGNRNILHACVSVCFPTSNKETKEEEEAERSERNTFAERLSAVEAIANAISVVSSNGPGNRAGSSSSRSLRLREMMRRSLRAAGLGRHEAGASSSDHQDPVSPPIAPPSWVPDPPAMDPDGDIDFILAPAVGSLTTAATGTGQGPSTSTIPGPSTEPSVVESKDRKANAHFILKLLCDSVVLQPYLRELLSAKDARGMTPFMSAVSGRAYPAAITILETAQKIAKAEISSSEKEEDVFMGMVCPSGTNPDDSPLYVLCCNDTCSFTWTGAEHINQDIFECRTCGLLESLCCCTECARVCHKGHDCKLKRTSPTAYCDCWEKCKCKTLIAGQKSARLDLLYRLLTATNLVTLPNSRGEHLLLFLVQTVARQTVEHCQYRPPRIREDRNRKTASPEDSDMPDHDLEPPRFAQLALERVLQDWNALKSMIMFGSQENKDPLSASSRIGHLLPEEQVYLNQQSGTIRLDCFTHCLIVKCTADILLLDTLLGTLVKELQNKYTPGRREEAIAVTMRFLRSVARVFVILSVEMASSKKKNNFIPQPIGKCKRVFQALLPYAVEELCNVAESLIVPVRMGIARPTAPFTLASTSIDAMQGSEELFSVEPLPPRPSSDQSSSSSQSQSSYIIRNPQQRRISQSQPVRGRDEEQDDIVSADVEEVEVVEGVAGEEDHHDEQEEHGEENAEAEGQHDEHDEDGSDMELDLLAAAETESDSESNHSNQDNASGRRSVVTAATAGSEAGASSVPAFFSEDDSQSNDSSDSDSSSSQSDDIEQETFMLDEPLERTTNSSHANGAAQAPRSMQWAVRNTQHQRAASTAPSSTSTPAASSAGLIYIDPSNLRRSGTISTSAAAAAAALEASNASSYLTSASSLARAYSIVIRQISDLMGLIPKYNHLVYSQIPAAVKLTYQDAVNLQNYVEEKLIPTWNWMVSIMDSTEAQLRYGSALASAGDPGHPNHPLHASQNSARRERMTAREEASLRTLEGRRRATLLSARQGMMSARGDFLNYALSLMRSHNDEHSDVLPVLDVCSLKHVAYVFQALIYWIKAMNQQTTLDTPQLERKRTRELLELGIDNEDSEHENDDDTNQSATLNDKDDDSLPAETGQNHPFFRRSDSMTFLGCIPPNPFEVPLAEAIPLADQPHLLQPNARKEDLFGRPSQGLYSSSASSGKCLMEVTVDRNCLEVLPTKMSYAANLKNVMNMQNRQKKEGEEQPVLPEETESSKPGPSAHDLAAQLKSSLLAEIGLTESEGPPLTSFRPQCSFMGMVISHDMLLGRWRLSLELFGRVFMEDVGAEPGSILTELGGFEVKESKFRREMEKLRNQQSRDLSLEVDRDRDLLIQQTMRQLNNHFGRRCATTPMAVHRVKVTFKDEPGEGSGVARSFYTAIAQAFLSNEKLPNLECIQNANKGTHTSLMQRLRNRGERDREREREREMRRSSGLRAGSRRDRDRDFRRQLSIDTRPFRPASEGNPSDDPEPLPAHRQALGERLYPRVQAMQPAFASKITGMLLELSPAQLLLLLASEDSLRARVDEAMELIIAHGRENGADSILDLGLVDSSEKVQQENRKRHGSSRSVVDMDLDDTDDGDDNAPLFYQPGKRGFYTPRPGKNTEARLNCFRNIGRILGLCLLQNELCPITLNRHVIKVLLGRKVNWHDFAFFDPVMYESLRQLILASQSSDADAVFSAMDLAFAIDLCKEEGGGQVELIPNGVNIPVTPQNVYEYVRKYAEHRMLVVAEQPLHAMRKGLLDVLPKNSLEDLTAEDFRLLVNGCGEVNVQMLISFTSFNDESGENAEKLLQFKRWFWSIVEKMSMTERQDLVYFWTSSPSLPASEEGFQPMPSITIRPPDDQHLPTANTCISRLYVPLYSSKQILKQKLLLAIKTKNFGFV
# UniProt P49841: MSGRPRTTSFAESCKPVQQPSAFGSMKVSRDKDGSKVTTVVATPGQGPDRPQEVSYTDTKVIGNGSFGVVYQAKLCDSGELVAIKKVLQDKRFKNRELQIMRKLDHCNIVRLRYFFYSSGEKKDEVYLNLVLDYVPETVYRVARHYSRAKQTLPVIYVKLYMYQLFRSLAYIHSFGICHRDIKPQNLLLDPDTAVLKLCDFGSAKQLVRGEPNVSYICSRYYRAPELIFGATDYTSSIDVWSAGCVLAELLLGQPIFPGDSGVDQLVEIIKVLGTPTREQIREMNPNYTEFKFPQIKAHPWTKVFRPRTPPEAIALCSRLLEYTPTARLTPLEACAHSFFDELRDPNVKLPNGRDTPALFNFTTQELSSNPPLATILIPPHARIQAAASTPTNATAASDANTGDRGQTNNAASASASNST
# How the values were obtained:
# HA-SIRT7 (human) [1] = target: HA-SIRT7 (human) (UniProt Q9NRC8); assay: co-IP; sequential immunoprecipitations with anti-HA and anti-FLAG antibodies from HEK293 cells co-expressing HA-SIRT7 and Flag-AMPK
# [2] = target: SIRT7 (endogenous) (human (endogenous in HEK293)) (UniProt Q9NRC8); assay: co-IP; proteins of untransfected cell lysates precipitated with anti-SIRT7, anti-GSK3β or anti-SKP2 antibody; lysis buffer 25 mM Tris-HCl pH 7.4, 150 mM NaCl, 1% NP-40, 1 mM EDTA; cells treated in some panels (glucose starvation 1 h, Compound C 5 µM, GSK3β or ERK2 knock-down, LiCl)
# FLAG-SKP2 = FLAG-SKP2 (UniProt Q13309); assay: co-IP; tagged proteins expressed by transfection (HEK293), precipitated by the tag (anti-FLAG or anti-HA); lysis buffer 25 mM Tris-HCl pH 7.4, 150 mM NaCl, 1% NP-40, 1 mM EDTA; some panels with co-expressed SIRT7-WT, 2A or 2E, or EGF 5 ng/ml
# [3] = target: SKP2 (in transfected HEK293 cells, construct not stated) (UniProt Q13309); assay: as above
# FLAG-UBR5 = FLAG-UBR5 (UniProt O95071); assay: as above
# [4] = target: GSK3β (in transfected HEK293 cells, construct not stated) (UniProt P49841); assay: as above
# HA-SIRT7 (human) [5] = target: HA-SIRT7 (human) (UniProt Q9NRC8); assay: as above
# [6] = target: SKP2 (in cell lysate, untagged) (UniProt Q13309); assay: co-IP; proteins of untransfected cell lysates precipitated with anti-SIRT7, anti-GSK3β or anti-SKP2 antibody; lysis buffer 25 mM Tris-HCl pH 7.4, 150 mM NaCl, 1% NP-40, 1 mM EDTA; cells treated in some panels (glucose starvation 1 h, Compound C 5 µM, GSK3β or ERK2 knock-down, LiCl)
# [7] = target: UBR5 (in cell lysate, with endogenous SIRT7) (UniProt O95071); assay: as above
# [8] = target: glycogen synthase kinase 3β (endogenous) (human (endogenous in HEK293)) (UniProt P49841); assay: as above
substance,measurement,setting,value
glycogen synthase kinase 3β (endogenous) (from UniProt P49841 1-420) (enzyme),binding,HA-SIRT7 (human) [1],binds
same,binding,[2],binds
SIRT7 T255E/S259E mutant (2E) (from UniProt Q9NRC8 1-400),binding,FLAG-SKP2,binds
same,binding,[3],binds
"SIRT7-WT (ectopic, tag not stated) (from UniProt Q9NRC8 1-400)",binding,FLAG-SKP2,binds
same,binding,FLAG-UBR5,binds
same,binding,[4],binds
same,binding,[3],binds
Flag-GSK3β (from UniProt P49841 1-420) (enzyme),binding,HA-SIRT7 (human) [5],binds
SIRT7 (endogenous) (from UniProt Q9NRC8 1-400),binding,[6],binds
same,binding,[7],binds
same,binding,[8],binds
